Key:
[1] = test system: A549, H1299, H1975 human lung cancer lines and BEAS-2B normal cell line, each cultured alone; experiment: VOCs headspace analysis (ITEX GC-MS) of mono-culture groups (Format-1), bulk cell samples 1×10^4 cells; type: cell-based; set-up: key to Category (VOC increased or decreased relative to the control): ↑: Increased; ↓: decreased; ↑*: <0.01; ↑**: <0.001; details: mono-culture groups (Format-1), averaged peak area (n = 3)
[2] = test system: different-cell pairs of BEAS-2B, A549, H1299, H1975 without physical contact under a mutual headspace; experiment: VOCs headspace analysis (ITEX GC-MS) of different-cell pair co-culture headspace groups (Format-3), bulk cell samples; type: cell-based, human; set-up: key to Category (VOC increased or decreased relative to the control): ↑: Increased; ↓: decreased; ↑*: <0.01; ↑**: <0.001; details: for Category (VOC increased or decreased relative to the control): different-cell pair co-culture headspace (Format-3), averaged peak area (n = 3)

Molecule | Category (VOC increased or decreased relative to the control) ([2]; 24 h) | Category (VOC increased or decreased relative to the control) ([2]; 48 h) | other results
3-Methyl-3-buten | – | – | Category (VOC increased or decreased relative to the control) ([1]; 24 h incubation): ↑
CCOC(=O)C1Oc2ccccc2O1 [1,3-Benzodioxole-2-carboxylic acid, ethyl ester] | ↑ | – | Category (VOC increased or decreased relative to the control) ([2]; 72 h): ↑* (↑*: <0.01)
CN(C)c1cc(C(=O)O)cc(C(=O)O)c1 [1,3-benzenedicarboxylic acid, 5-(dimethylamino)-] | – | ↓ | Category (VOC increased or decreased relative to the control) ([2]; 72 h): ↑* (↑*: <0.01)
CC(=O)c1ccc(C(C)=O)cc1 [1,4-Diacetylbenzene] | – | – | Category (VOC increased or decreased relative to the control) ([1]; 24 h incubation): ↑* (↑*: <0.01)
C1=Cc2ccc3cccc4c3c2C(=CC4)C1 [1,9-Dihydropyrene] | – | ↑* (↑*: <0.01) | –
CCCCO [1-Butanol] | – | – | Category (VOC increased or decreased relative to the control) ([1]; 72 h incubation): ↓
CCCCCCCCCCCCO [1-Dodecanol] | – | – | Category (VOC increased or decreased relative to the control) ([1]; 24 h incubation): ↑* (↑*: <0.01); Category (VOC increased or decreased relative to the control) ([1]; 48 h incubation): ↑** (↑**: <0.001)
CC(C)CCCC(=O)c1ccccc1 [1-Hexanone, 5-methyl-1-phenyl-] | – | ↑* (↑*: <0.01) | –
C=CCOCCC [1-Propene, 3-propoxy-] | – | – | Category (VOC increased or decreased relative to the control) ([2]; 72 h): ↑
CC(C)C(=O)OCC(C)(C)C(OC(=O)C(C)C)C(C)C (stereo not shown) [2,2,4-Trimethyl-1,3-pentanediol diisobutyrate] | – | – | Category (VOC increased or decreased relative to the control) ([1]; 48 h incubation): ↑
Cc1cc(C)nc(C)c1 [2,4,6-Trimethylpyridine] | – | – | Category (VOC increased or decreased relative to the control) ([1]; 24 h incubation): ↑; Category (VOC increased or decreased relative to the control) ([1]; 48 h incubation): ↑; Category (VOC increased or decreased relative to the control) ([1]; 72 h incubation): ↑
C=C(C)CC(C)CCC (stereo not shown) [2,4-Dimethyl-1-heptane] | – | – | Category (VOC increased or decreased relative to the control) ([1]; 24 h incubation): ↑; Category (VOC increased or decreased relative to the control) ([1]; 72 h incubation): ↑
CCCCCCCCCCCCCCCC(C)=O [2-Heptadecanone] | ↓ | – | –
C/C=C/C(C)CCC (stereo not shown) [2-Heptene, 4-methyl-, (E)-] | – | ↓ | –
CCCCCCCCCCCCCC(C)=O [2-Pontadecanone] | ↓ | – | –
CCC(C)C=O (stereo not shown) [2-methyl butanal] | – | – | VOCs found at T24, T48 and T72 h incubation in all groups [2]: commonly found
COc1ccc(C=CC(=O)O)cc1OC [3,4-Dimethoxycinnamic acid] | – | – | Category (VOC increased or decreased relative to the control) ([2]; 72 h): ↓
CC(C)(C)c1cc(C=O)cc(C(C)(C)C)c1O [3,5-di-tert-Butyl-4-hydroxybenzaldehyde] | ↓ | – | –
CCC=C(CC)CC [3-Ethyl-3-hexene] | ↑ | – | –

Molecule | Category (VOC increased or decreased relative to the control) ([2]; 24 h) | Category (VOC increased or decreased relative to the control) ([2]; 48 h) | other results
CCCC=C(C)CC [3-Heptene, 3-methyl-] | ↑* (↑*: <0.01) | – | –
CC/C=C\CCOC(=O)CC [3-Hexen-1-ol, propanoate, (Z)-] | ↑ | – | –
CCCOC(=O)OC(C)(CC)CC [3-Methylpentan-3-yl propyl carbonate] | – | ↑* (↑*: <0.01) | –
CC=C(C)CCCC [3-methyl-2-Heptene] | – | ↓ | –
CCCOC(=O)c1ccc(F)c(C(F)(F)F)c1 [4-Fluoro-3-trifluoromethylbenzoic acid, propyl ester] | – | ↑* (↑*: <0.01) | –
Cc1ccc(C=Nc2ccc(C)cc2)cc1 [4-Methylbenzylidene-4-methylaniline] | – | – | Category (VOC increased or decreased relative to the control) ([2]; 72 h): ↑
CCCCC(=O)C(=O)CCCC [5,6-Decanedione] | – | – | Category (VOC increased or decreased relative to the control) ([2]; 72 h): ↑* (↑*: <0.01)
CC(=O)c1cncnc1 [5-Acetylpyrimidine] | ↑* (↑*: <0.01) | – | –
NC(=O)CF [Acetamide, 2-fluoro-] | ↑ | – | Category (VOC increased or decreased relative to the control) ([2]; 72 h): ↑* (↑*: <0.01)
COC(=O)C(OC)OC [Acetic acid, dimethoxy-, methyl ester] | ↑** (↑**: <0.001) | – | –
O=C(O)CO [Acetic acid, hydroxy-] | – | ↑* (↑*: <0.01) | –
CC1(c2ccccc2)CNC1 [Azetidine, 3-methyl-3-phenyl-] | – | – | Category (VOC increased or decreased relative to the control) ([2]; 72 h): ↑
c1ccc([C@H]2CC[C@H]2c2ccccc2)cc1 [Benzene, 1,1′-(1,2-cyclobutanediyl)bis-, cis-] | – | ↑ | –
CC(C)(C)c1cccc(C(C)(C)C)c1 [Benzene, 1,3-bis(1,1-dimethylethyl)-] | ↑ | ↓ | –
c1ccccc1 [Benzene] | – | ↓ | –
CCCCC(CC)COC(=O)c1ccccc1 (stereo not shown) [Benzoic acid, 2-ethylhexyl ester] | – | – | Category (VOC increased or decreased relative to the control) ([2]; 72 h): ↑
CCOC(=O)c1ccc(OCC)cc1 [Benzoic acid, 4-ethoxy-, ethyl ester] | ↑ | – | –
O=C(c1ccccc1)c1ccccc1 [Benzophenone] | – | – | VOCs found at T24, T48 and T72 h incubation in all groups [2]: commonly found
C=CCOCCCC [Butane, 1-(2-propenyloxy)-] | – | ↑* (↑*: <0.01) | –
